Measured values as given in PubChem BioAssay AID602346 (Broad Institute, 2012).
Out of some 340,000 compounds screened, about 1,200 (0.35%) were called active. The inconclusive results got no clear call from the source; some entries with a clear call stand among them for comparison. No stated cut-off is given here; in the data, active means inhibition above about 50% (passing the limit was not always enough); inconclusive means no clear call, values can overlap the other calls; inactive means below about 31%.

experiment: blockers of Vif multimerization in cells – imaging, HEK293T, single point, primary screen (AID 602346); conditions: Vif self-association by quenched fluorescence, 24 h, at 7.49 µM, stronger effect = higher value

Structure (SMILES)	inhibition
CN1CCN(c2nc3c(c(=O)[nH]c(=O)n3C)n2Cc2ccc(Cl)cc2)CC1	inactive: 0.713%
Cc1cc(C(=O)N/N=C/c2ccc(-c3ccc(C)c(Cl)c3)o2)n[nH]1	inconclusive: 37%
COc1cc(C(c2c(C)[nH][nH]c2=O)c2c(C)[nH][nH]c2=O)cc([N+](=O)[O-])c1O	inactive: -2.38%
C/C(=N\NC(=O)c1c([N+](=O)[O-])c(C)nn1C)c1ccc(NC(=O)C2CCCC2)cc1	active: 64.2%
O=C(CSc1ncnc2nc[nH]c12)N1CCN(c2ccccc2)CC1	inconclusive: 42.4%
O=C(CNC(=O)c1ccc2c(c1)OCCO2)N/N=C/c1ccco1	inconclusive: 33.1%
CC(=O)c1c(C)[nH]c(C(=O)COC(=O)c2cccnc2Cl)c1C	inconclusive: 44.4%
O=c1cc(-c2ccc(O)cc2)oc2c(O)c(O)c(O)c(O)c12	inconclusive: 31.7%
C/C(CC(=O)Nc1ccc(N(C)C)cc1)=N\NC(=O)c1ccc([N+](=O)[O-])cc1	inconclusive: 44.7%
Nc1ncnc2c1ncn2C1OC(COP(=O)(O)O)C(O)C1O (stereo not given)	active: 65.6%
COC(=O)N1C(=O)[C@](c2ccc(Cl)cc2)(C(C)C)N1C(=O)OC	active: 50.7%
O=C(NC12CC3CC(CC(C3)C1)C2)c1cncc(Br)c1	inconclusive: 38.4%
CCC(=O)c1ccc(OCC(=O)Nc2nn3cnnc3s2)cc1	active: 68.1%
Fc1cc2ncn(Cc3ccccc3)c2cc1F	inconclusive: 15.2%
COCCCNC(=O)c1c(NC(=O)C2COc3ccccc3O2)sc2c1CCCC2 (stereo not given)	inconclusive: 32.5%
Cc1ccc(C)c(N2CCN(C(=O)c3ccc(N4CCOCC4)c([N+](=O)[O-])c3)CC2)c1	inconclusive: 29.7%
Cn1c(=O)c2c(nc(Sc3ncnn3CC(=O)NC3CCCCC3)n2C)n(C)c1=O	inconclusive: 45.3%
Cc1ccc(C(=O)Nc2ccc(S(=O)(=O)N3CCN(C)CC3)cc2)o1	inconclusive: 34.5%
O=C1Nc2ccc3c(c2C1=Cc1cc2c(cc1Br)OCO2)OCO3	inconclusive: 46.3%
CC(=O)Nc1ccc(NC(=O)CCNC(=O)c2ccccc2Cl)cc1	inconclusive: 36.5%
Cc1ccc(NC(=O)/C=C/c2ccco2)nc1	active: 51.4%
CCn1ccc(C(=O)NC2=C(C#N)CCC2)n1	inconclusive: 32%

Copied from the list:
`COCCCNC(=O)c1c(NC(=O)C2COc3ccccc3O2)sc2c1CCCC2` (stereo not given) – inhibition: inconclusive: 32.5%
`O=C(CNC(=O)c1ccc2c(c1)OCCO2)N/N=C/c1ccco1` – inhibition: inconclusive: 33.1%

Further compounds

Structure (SMILES)	inhibition
Cc1cccc(Nc2nnc(SCc3cc(=O)n4cc(C)ccc4n3)s2)c1	inconclusive: 37.6%
C=CCOn1c(=O)c(-c2ccc(OC)cc2)[n+]([O-])c2ccccc21	inconclusive: 38.8%
COC(=O)NC(Nc1sc2c(c1C(N)=O)CCCC2)(C(=O)OC)C(F)(F)F (stereo not given)	inconclusive: 35.6%
CN(C)c1cccc(NC(=O)C2Cc3c(-c4ccc(Cl)cc4)ccnc3O2)c1 (stereo not given)	inactive: -4.06%
Cc1cccc(NS(=O)(=O)c2ccc(C)c(C(=O)NNC(=O)c3csc(N4CCOCC4)n3)c2)c1	inconclusive: 21.5%
Cc1cccc(C)c1NC(=O)Nc1nnc([C@H]2C[C@H](O)[C@@H](CO)O2)s1	inconclusive: 37.1%
Cn1c(=O)c2c(nc(Sc3ncnn3CC(=O)NC(C)(C)C)n2C)n(C)c1=O	inconclusive: 39.8%
COc1ccc(-c2ccc3c(N)c(C(=O)c4ccc(OC)c(OC)c4)sc3n2)cc1	active: 148%
CN=Cc1sc2ccccc2c1O	inactive: 3.28%
COc1cc(CN2CCC(C(=O)NC3CCCC3)CC2)ccc1O	inconclusive: 40.2%
O=C(CCc1ccccc1)Nc1ccc(Cl)cn1	inconclusive: 30.1%
COc1cccc(NC2=C(Cl)C(=O)OC2OC(=O)c2ccco2)c1 (stereo not given)	inconclusive: 40.4%
COc1cccc(NC(=O)NC2(C(F)(F)F)Oc3ccccc3O2)c1	inconclusive: 48.7%
Cc1cccc2sc(NC(=O)C3CCN(C(=O)c4ccco4)CC3)nc12	inactive: -10.3%
O=C(COC(=O)CNC(=O)c1ccc(F)cc1)NC1CCCc2ccccc21 (stereo not given)	inconclusive: 31.7%
O=C(CCCCn1ccc(=O)[nH]c1=O)Nc1ccc(O)c(C(=O)O)c1	active: 78.1%
O=C(NC1CCCN(CCc2ccccc2)C1)c1c(F)cccc1F (stereo not given)	inconclusive: 37%
CCC(C)NC(=O)CSc1n[nH]c(=O)n1CCc1ccccc1 (stereo not given)	inconclusive: 42.7%
CC(=O)NC(C)(c1ccccc1)c1nc(-c2cncnc2)cs1 (stereo not given)	inconclusive: 30.9%
O=C(O)CCCCCn1c(SCC(=O)Nc2ccc(F)cc2)nc2ccsc2c1=O	inconclusive: 29.5%
CCOC(=O)C1CCCN(CC(=O)Nc2c(C(=O)OC)[nH]c3ccc(Cl)cc23)C1 (stereo not given)	active: 61.4%
C[C@@H]1CN([C@H](C)CO)C(=O)c2cc(NC(=O)Nc3cccc4ccccc34)ccc2O[C@H]1CN(C)Cc1ccc(C(F)(F)F)cc1	inconclusive: 31%

Structure (SMILES)	inhibition
COc1cc(/C=C2/SC(=NCc3ccccc3)N(Cc3ccccc3)C2=O)ccc1O	inactive: -2.35%
COc1ccc(C(=O)NCCC(C)C)cc1S(=O)(=O)N1CCOCC1	inconclusive: 47.3%
c1ccc(CCNc2ncnc3c2cnn3-c2ccccc2)cc1	inactive: -11.4%
CC(C)(C)c1ccc(S(=O)(=O)/N=C2\C=C(NS(=O)(=O)c3ccccc3)C(=O)c3ccccc32)cc1	inactive: -5.22%
CC(C)c1nnc(NC(=O)CN(C)S(=O)(=O)c2ccc3c(c2)OCCO3)s1	inconclusive: 29.4%
CC(=O)Nc1ccc(C=NNc2ccc(S(=O)(=O)Nc3ccccc3C(=O)O)cc2[N+](=O)[O-])cc1	inactive: 2.58%
CC(=O)C(/C=N/c1ncc(C(F)(F)F)cc1Cl)=C(\C)O	inactive: -4.66%
COc1ccccc1NS(=O)(=O)c1cc(C(=O)NCCCN2CCCC2=O)ccc1C	inconclusive: 32.4%
CN(C)c1ncnc2c1ncn2C1OC(CO)C(O)C1O (stereo not given)	inconclusive: 37.2%
O=[N+]([O-])c1cccn2cc(-c3ccc(Br)cc3)nc12	inactive: -3.52%
Cn1c2ccccc2c2cc(/C=N/NC(=O)c3ccc(O)cc3O)ccc21	inactive: 0.976%
CC1CCN(S(=O)(=O)c2ccc3[nH]cc(C(=O)NCCN4CCOCC4)c(=O)c3c2)CC1	inconclusive: 40%
CCOC(=O)c1ccccc1NC(=O)CSc1nc2c(sc(=S)n2CC)c(=O)[nH]1	inconclusive: 35.9%
CCOC(=O)Cn1nc(C)c(NC(=O)c2ccc([N+](=O)[O-])c(C)c2)c1C	inconclusive: 29.5%
CCOCCCNC(=O)C(c1ccc(C)cc1)N(Cc1ccc2c(c1)OCO2)C(=O)CNC(C)=O (stereo not given)	inconclusive: 37.8%
CCc1nc(C)cn1S(=O)(=O)c1ccc(Br)cc1	inactive: 14.1%
COc1ccc([N+](=O)[O-])c(OC)c1C(=O)NC(=O)Nc1nc(C)cc(C)n1	inconclusive: 48%
CN1/C(=C\C=C(C#N)C#N)C(C)(C)c2ccccc21	active: 119%
CCn1c(-c2ccc(N)cc2)nc2ccccc21	inactive: 15%
Cc1ccc(S(=O)(=O)N[C@@H](C)C(=O)N2CCC(C(=O)N[C@@H](Cc3ccccc3)C(=O)O)CC2)cc1	inconclusive: 35.7%
Cc1ccc(S(=O)(=O)N/N=C/c2ccc(OCC(=O)Nc3ccccc3Cl)cc2)cc1	inactive: -7.16%
COc1ccc(NC(=O)COC(=O)C2CCN(C(=O)c3ccc(Cl)cc3)CC2)c([N+](=O)[O-])c1	inconclusive: 47.8%

Arranged by molar mass (largest number first): 6 of the compounds above
Structure (SMILES)	inhibition
CC(C)(C)c1ccc(S(=O)(=O)/N=C2\C=C(NS(=O)(=O)c3ccccc3)C(=O)c3ccccc32)cc1	inactive: -5.22%
CC1CCN(S(=O)(=O)c2ccc3[nH]cc(C(=O)NCCN4CCOCC4)c(=O)c3c2)CC1	inconclusive: 40%
COc1ccc([N+](=O)[O-])c(OC)c1C(=O)NC(=O)Nc1nc(C)cc(C)n1	inconclusive: 48%
CCc1nc(C)cn1S(=O)(=O)c1ccc(Br)cc1	inactive: 14.1%
CN1/C(=C\C=C(C#N)C#N)C(C)(C)c2ccccc21	active: 119%
CCn1c(-c2ccc(N)cc2)nc2ccccc21	inactive: 15%

(list continues)

Structure (SMILES)	inhibition
COc1ccccc1/C=C/CN1CCC(n2nccc2NC(=O)C2CC2)CC1	inconclusive: 36.4%
COc1cc(C(=O)NNC(=O)c2cc(=O)[nH]c3ccccc23)cc(OC)c1OC	inconclusive: 28.9%
Cc1ccccc1Cc1c(C)nc2c(C(=O)N3CCN(Cc4ccc5c(c4)OCO5)CC3)cnn2c1C	inactive: -0.925%
COc1ccc(CCNS(=O)(=O)c2ccc3c(c2)CC(C)N3C(=O)C2CC2)cc1OC (stereo not given)	inconclusive: 30.4%
COc1cc(COCC(O)CN2CCN(Cc3ccc4c(c3)OCO4)CC2)cc(OC)c1OC (stereo not given)	inconclusive: 15.2%
CCOC(=O)c1ccc(NCn2c(=O)oc3ccccc32)cc1	inactive: 27.2%
Clc1ccccc1CSc1cnnc2ccccc12	inactive: 13.2%
NS(=O)(=O)c1ccc(CNC(=O)c2ccc(S(=O)(=O)NCc3ccco3)cc2)cc1	inconclusive: 31.1%
CN(CCC#N)C(=O)COC(=O)c1c2c(nc3ccccc13)/C(=C/c1ccco1)CC2	inactive: -1.35%
CC(=O)C1=CCC(c2ccc(Cl)c(Cl)c2)N(S(=O)(=O)c2ccc(C)cc2)C1 (stereo not given)	inactive: 14.5%
O=C(NCc1ccco1)c1cc([N+](=O)[O-])cc([N+](=O)[O-])c1	inconclusive: 36%
C1CCc2c(nc3nnnn3c2N2CCOCC2)C1	inconclusive: 47.7%
COc1ccc(OC)c(/C=C/C(=O)Oc2ccc(C(C)=O)cc2)c1	inconclusive: 34.3%
COc1ccccc1NC(=O)Nc1nc(CC(=O)NCc2c(F)cccc2F)cs1	inactive: -3.01%
COc1ccccc1-c1cc(C(F)(F)F)nc(S(=O)(=O)CCCC(=O)NC(C)C)n1	inconclusive: 49.9%
O=C(N/N=C/c1cccnc1)c1ccccc1OCc1ccc(Br)cc1	inactive: -3.63%
CCc1ccccc1NC(=O)CSc1nc2n[nH]c(C)c2c(=N)n1-c1cccc(OC)c1	inconclusive: 26.7%
CCC(=O)OCCNc1cc(Sc2nc3ccccc3[nH]2)c2nonc2c1[N+](=O)[O-]	inactive: -1.34%
COc1cc(CNc2ccc3[nH]c(=O)[nH]c3c2)ccc1OCc1ccc(C)cc1	inactive: -8.48%
